Laboratory results reported in PMC12487280.

The chains behind the UniProt entries cited, without tags or fusion partners.
UniProt Q14157: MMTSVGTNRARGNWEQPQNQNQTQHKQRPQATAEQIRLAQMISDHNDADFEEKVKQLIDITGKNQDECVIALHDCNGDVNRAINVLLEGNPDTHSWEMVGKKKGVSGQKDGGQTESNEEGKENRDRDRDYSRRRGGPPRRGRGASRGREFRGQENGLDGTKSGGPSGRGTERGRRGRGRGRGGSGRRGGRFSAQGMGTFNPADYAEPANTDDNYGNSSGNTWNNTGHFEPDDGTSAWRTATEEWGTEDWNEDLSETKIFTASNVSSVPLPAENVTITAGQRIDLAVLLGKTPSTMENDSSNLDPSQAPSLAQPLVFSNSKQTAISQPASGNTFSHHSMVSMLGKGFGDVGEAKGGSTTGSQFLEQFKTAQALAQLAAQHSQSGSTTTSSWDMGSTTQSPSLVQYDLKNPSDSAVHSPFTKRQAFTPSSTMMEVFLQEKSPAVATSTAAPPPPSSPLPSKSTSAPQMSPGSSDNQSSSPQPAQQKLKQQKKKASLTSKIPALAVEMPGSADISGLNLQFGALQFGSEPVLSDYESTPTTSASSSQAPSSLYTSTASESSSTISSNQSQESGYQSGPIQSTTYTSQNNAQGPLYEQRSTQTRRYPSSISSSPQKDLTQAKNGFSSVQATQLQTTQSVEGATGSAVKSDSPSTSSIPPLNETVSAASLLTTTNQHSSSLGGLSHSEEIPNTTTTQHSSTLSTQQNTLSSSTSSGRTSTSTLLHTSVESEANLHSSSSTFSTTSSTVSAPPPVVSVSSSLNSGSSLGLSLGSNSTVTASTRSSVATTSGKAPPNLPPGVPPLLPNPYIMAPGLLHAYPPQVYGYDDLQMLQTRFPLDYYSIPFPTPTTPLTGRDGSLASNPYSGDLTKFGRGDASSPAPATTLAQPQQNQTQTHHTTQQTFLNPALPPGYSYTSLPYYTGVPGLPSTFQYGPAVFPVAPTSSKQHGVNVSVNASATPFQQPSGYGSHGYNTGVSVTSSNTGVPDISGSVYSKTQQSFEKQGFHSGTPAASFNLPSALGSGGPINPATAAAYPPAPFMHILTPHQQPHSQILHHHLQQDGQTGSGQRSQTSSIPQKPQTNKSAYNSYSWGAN
UniProt O94972: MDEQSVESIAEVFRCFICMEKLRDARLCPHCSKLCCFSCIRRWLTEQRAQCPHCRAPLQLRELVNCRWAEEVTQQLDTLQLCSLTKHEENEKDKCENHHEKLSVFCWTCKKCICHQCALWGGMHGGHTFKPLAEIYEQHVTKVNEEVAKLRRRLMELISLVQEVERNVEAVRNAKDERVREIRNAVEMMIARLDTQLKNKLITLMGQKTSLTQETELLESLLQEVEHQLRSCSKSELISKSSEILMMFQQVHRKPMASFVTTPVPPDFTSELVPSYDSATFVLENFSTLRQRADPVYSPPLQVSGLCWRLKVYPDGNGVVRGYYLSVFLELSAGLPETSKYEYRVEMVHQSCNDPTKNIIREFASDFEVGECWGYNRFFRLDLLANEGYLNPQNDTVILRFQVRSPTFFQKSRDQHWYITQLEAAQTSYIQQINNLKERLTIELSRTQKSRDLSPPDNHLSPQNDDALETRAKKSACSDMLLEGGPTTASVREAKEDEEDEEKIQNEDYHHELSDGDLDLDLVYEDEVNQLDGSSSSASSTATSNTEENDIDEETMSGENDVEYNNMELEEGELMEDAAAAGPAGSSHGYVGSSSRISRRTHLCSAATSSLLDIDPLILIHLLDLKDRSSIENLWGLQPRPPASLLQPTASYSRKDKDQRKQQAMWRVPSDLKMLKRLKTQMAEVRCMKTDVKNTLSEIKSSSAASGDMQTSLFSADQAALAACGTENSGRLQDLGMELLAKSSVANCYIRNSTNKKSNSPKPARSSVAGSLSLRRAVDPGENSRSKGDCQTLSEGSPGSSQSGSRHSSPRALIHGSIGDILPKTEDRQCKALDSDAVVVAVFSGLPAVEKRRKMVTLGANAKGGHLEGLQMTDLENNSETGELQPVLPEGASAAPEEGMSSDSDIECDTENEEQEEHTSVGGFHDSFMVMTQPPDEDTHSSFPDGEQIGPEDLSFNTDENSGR

Key:
[1] = biological target: Flag-UBAP2L (ubiquitin-associated protein 2-like), expressed in 786-O cells (UniProt Q14157); assay: affinity purification with mass spectrometry; Flag antibody immunoprecipitation of Flag-UBAP2L from 786-O cells; SDS-PAGE, silver staining, bands excised for MS; IgG control
[2] = biological target: Flag-UBAP2L (ubiquitin-associated protein 2-like), expressed in 786-O cells (UniProt Q14157); assay: as above; remark: listed apart in the source

Row | binding [1] | binding [2] | Molecule
1 | binds |  | TRIM37, endogenous in ccRCC cells (from UniProt O94972 1-964) (enzyme)
2 |  | binds | OGT (O-GlcNAc transferase), endogenous in ccRCC cells (enzyme, UniProt O15294 1-1046) MASSVGNVADSTEPTKRMLSFQGLAELAHREYQAGDFEAAERHCMQLWRQEPDNTGVLLLLSSIHFQCRRLDRSAHFSTLAIKQNPLLAEAYSNLGNVYKERGQLQEAIEHYRHALRLKPDFIDGYINLAAALVAAGDMEGAVQAYVSALQYNPDLYCVRSDLGNLLKALGRLEEAKACYLKAIETQPNFAVAWSNLGCVFNAQGEIWLAIHHFEKAVTLDPNFLDAYINLGNVLKEARIFDRAVAAYLRALSLSPNHAVVHGNLACVYYEQGLIDLAIDTYRRAIELQPHFPDAYCNLANALKEKGSVAEAEDCYNTALRLCPTHADSLNNLANIKREQGNIEEAVRLYRKALEVFPEFAAAHSNLASVLQQQGKLQEALMHYKEAIRISPTFADAYSNMGNTLKEMQDVQGALQCYTRAIQINPAFADAHSNLASIHKDSGNIPEAIASYRTALKLKPDFPDAYCNLAHCLQIVCDWTDYDERMKKLVSIVADQLEKNRLPSVHPHHSMLYPLSHGFRKAIAERHGNLCLDKINVLHKPPYEHPKDLKLSDGRLRVGYVSSDFGNHPTSHLMQSIPGMHNPDKFEVFCYALSPDDGTNFRVKVMAEANHFIDLSQIPCNGKAADRIHQDGIHILVNMNGYTKGARNELFALRPAPIQAMWLGYPGTSGALFMDYIITDQETSPAEVAEQYSEKLAYMPHTFFIGDHANMFPHLKKKAVIDFKSNGHIYDNRIVLNGIDLKAFLDSLPDVKIVKMKCPDGGDNADSSNTALNMPVIPMNTIAEAVIEMINRGQIQITINGFSISNGLATTQINNKAATGEEVPRTIIVTTRSQYGLPEDAIVYCNFNQLYKIDPSTLQMWANILKRVPNSVLWLLRFPAVGEPNIQQYAQNMGLPQNRIIFSPVAPKEEHVRRGQLADVCLDTPLCNGHTTGMDVLWAGTPMVTMPGETLASRVAASQLTCLGCLELIAKNRQEYEDIAVKLGTDLEYLKKVRGKVWKQRISSPLFNTKQYTMELERLYLQMWEHYAAGNKPDHMIKPVEVTESA

Where two headings read alike, the source gives them in different places. These are yes or no findings as the source states them, for the method shown. Binding seen in cells or lysates may run through a third protein. These calls come from enrichment with a bait or labelling near it, and not all partners need be listed.
